Experimental data taken from article PMC5955124.

Chains of the proteins cited; added tags and fusions are not shown. Residues count along the entry.
UniProt Q12913, residues 36-1337: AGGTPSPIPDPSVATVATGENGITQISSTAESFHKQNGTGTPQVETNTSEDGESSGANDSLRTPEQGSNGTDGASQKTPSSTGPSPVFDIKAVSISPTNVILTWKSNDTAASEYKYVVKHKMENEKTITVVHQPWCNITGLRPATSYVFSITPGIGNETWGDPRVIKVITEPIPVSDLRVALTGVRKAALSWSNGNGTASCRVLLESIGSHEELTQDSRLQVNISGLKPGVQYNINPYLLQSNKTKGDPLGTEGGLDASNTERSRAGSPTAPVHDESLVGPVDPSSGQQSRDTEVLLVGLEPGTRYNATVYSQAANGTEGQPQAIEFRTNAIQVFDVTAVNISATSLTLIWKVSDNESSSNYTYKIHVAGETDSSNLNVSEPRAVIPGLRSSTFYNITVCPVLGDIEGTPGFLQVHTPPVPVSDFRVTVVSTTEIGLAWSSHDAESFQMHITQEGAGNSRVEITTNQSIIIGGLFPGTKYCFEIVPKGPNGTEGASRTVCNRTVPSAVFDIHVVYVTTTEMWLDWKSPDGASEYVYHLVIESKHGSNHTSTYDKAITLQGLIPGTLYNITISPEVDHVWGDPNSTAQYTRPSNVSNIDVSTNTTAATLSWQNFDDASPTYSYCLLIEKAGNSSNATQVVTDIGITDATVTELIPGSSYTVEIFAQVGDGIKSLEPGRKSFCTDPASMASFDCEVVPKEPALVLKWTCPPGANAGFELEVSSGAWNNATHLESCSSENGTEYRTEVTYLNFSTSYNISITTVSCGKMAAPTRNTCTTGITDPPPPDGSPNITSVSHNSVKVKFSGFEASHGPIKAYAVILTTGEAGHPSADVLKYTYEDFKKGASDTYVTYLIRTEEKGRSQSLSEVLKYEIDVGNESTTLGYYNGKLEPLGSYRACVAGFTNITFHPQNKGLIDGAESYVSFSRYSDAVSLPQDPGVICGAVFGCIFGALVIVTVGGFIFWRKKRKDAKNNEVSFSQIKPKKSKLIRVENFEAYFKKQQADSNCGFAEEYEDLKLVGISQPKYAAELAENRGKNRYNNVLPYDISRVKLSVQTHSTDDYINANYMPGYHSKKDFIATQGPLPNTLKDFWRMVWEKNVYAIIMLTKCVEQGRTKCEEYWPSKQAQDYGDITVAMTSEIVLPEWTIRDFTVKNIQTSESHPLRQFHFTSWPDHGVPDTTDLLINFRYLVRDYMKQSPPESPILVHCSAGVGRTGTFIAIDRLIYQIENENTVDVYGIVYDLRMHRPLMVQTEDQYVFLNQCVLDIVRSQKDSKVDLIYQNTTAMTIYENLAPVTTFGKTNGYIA
UniProt P25705, residues 44-553: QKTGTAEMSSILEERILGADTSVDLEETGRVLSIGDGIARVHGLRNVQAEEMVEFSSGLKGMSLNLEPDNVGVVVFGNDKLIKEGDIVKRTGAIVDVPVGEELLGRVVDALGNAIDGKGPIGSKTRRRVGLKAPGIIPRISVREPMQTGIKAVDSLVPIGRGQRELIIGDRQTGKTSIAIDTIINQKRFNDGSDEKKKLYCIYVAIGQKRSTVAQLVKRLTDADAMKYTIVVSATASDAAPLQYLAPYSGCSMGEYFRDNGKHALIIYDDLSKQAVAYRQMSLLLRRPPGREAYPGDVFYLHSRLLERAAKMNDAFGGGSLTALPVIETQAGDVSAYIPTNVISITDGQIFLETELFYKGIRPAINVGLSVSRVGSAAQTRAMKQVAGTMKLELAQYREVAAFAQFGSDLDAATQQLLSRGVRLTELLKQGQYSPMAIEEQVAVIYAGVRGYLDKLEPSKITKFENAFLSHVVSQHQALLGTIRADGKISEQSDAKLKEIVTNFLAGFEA
UniProt P61011: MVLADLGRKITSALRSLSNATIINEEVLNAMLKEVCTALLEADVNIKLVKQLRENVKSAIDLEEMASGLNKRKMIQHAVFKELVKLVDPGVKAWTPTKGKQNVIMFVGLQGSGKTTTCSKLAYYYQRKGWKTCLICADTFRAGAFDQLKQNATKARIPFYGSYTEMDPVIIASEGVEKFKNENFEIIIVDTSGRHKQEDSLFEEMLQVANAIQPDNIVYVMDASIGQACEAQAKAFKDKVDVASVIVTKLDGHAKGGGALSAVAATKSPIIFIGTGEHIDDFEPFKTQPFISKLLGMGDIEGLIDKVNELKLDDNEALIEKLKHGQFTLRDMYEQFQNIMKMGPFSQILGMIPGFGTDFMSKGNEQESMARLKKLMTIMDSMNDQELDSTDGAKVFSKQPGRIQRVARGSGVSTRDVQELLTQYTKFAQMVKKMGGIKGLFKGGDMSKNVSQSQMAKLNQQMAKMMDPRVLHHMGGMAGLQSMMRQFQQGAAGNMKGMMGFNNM
UniProt P17844: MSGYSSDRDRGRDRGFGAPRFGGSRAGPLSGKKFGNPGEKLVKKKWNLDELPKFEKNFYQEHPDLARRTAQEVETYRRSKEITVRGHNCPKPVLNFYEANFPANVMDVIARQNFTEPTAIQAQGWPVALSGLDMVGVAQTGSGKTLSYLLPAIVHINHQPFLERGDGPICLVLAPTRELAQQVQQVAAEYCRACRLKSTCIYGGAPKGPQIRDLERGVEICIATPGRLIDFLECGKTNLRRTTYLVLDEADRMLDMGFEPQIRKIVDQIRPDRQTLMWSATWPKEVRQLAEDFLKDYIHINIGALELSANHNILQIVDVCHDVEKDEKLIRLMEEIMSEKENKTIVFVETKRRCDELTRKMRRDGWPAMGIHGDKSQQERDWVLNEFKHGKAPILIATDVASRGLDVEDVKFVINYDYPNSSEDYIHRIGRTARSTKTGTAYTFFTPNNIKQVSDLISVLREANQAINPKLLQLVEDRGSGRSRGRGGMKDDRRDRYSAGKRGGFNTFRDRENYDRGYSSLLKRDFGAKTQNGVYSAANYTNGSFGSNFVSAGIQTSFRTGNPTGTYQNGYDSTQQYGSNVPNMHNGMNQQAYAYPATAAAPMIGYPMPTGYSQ
UniProt P35580: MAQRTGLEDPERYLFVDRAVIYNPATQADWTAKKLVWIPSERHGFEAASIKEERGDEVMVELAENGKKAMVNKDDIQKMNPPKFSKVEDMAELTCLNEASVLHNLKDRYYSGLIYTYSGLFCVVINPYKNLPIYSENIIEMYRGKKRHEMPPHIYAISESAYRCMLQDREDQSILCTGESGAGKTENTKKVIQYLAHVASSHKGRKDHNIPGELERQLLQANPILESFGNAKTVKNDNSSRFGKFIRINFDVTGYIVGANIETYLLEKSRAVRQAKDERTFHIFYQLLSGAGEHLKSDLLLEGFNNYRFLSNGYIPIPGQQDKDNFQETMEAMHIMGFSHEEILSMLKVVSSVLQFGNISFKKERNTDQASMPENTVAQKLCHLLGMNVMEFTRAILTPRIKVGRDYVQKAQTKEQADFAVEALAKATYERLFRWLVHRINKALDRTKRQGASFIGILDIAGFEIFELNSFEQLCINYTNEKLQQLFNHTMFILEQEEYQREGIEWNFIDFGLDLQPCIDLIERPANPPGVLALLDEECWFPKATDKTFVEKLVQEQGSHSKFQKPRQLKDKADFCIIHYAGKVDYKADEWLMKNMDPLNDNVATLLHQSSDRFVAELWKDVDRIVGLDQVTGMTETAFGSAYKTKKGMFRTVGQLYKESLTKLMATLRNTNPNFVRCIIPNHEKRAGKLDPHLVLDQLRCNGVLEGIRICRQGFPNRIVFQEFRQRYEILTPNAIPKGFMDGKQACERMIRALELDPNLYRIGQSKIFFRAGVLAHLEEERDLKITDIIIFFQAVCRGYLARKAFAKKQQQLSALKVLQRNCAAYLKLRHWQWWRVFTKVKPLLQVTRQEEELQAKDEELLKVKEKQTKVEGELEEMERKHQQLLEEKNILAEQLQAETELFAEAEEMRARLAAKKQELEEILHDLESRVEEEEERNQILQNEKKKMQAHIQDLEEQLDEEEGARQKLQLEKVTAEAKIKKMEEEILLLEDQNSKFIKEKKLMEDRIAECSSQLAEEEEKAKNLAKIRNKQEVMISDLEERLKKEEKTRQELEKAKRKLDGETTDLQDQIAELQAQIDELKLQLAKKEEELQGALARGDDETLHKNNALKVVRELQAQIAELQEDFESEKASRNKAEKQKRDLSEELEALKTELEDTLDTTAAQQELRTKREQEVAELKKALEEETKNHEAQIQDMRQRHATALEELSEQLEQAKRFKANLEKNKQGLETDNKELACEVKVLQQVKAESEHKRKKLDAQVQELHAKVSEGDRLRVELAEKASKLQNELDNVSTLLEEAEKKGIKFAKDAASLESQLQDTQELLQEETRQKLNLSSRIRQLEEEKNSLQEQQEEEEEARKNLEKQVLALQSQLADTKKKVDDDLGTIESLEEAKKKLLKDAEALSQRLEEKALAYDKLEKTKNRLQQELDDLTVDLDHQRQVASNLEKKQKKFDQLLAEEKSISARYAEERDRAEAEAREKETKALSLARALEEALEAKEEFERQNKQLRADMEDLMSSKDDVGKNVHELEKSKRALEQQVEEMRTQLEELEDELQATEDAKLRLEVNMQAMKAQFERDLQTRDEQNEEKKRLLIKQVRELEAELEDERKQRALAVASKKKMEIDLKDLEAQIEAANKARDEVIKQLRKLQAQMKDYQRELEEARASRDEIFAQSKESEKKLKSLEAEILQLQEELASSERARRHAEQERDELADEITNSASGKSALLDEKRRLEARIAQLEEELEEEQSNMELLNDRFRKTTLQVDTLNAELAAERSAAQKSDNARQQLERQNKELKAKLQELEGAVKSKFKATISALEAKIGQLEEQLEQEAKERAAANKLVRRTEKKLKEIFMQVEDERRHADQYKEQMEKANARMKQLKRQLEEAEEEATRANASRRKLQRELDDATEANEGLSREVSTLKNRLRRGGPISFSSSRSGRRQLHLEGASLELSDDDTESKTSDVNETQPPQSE
UniProt P61019: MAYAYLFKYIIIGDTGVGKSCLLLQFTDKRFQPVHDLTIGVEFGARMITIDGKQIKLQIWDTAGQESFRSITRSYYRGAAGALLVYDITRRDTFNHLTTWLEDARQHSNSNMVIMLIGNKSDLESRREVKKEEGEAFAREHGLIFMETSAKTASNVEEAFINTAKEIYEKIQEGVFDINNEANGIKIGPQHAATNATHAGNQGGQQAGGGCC
UniProt P06396, residues 28-782: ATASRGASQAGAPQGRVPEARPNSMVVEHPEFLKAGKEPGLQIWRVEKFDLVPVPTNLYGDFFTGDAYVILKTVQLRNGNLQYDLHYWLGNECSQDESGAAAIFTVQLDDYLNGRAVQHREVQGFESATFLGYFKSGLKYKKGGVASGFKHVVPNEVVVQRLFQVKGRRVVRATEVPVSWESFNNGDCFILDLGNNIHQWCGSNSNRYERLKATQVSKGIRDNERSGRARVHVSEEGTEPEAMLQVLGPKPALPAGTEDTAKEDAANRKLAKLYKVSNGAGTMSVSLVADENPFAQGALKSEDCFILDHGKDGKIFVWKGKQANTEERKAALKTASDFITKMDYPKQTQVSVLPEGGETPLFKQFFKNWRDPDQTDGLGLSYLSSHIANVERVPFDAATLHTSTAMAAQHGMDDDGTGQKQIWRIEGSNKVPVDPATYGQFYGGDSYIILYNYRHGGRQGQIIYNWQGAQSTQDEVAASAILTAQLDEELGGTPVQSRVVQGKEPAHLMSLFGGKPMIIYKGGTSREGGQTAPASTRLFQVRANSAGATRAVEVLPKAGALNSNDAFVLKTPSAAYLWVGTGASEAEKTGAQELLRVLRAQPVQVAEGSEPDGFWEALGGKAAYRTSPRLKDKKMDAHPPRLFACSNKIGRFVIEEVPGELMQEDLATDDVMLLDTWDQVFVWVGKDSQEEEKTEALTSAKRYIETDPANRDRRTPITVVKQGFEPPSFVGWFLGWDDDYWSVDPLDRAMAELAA
UniProt P0DMV8: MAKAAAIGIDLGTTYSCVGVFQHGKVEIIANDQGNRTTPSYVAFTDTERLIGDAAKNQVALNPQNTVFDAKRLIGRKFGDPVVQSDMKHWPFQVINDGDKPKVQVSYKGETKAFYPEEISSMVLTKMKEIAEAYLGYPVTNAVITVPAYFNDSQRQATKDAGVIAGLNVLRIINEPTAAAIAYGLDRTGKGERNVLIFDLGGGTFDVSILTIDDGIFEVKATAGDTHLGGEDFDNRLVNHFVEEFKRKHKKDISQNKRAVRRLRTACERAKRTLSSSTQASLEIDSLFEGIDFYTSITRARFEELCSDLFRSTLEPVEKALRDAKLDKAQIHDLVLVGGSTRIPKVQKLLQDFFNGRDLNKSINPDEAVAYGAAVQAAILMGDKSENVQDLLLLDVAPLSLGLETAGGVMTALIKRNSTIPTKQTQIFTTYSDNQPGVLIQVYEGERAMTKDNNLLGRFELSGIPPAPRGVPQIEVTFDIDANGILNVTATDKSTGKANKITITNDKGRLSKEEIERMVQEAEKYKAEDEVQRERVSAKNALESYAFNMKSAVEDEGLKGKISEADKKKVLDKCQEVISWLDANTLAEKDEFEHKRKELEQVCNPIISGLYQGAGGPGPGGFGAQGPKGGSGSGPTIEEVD

B1: Coiled-coil domain-containing protein 51 (protein, UniProt Q96ER9 36-411)
chain: LCSPGPSQPGEKRPEEVALGLHHRLPALGRALGHSIQQRATSTAKTWWDRYEEFVGLNEVREAQGKVTEAEKVFMVARGLVREAREDLEVHQAKLKEVRDRLDRVSREDSQYLELATLEHRMLQEEKRLRTAYLRAEDSEREKFSLFSAAVRESHEKERTRAERTKNWSLIGSVLGALIGVAGSTYVNRVRLQELKALLLEAQKGPVSLQEAIREQASSYSRQQRDLHNLMVDLRGLVHAAGPGQDSGSQAGSPPTRDRDVDVLSAALKEQLSHSRQVHSCLEGLREQLDGLEKTCSQMAGVVQLVKSAAHPGLVEPADGAMPSFLLEQGSMILALSDTEQRLEAQVNRNTIYSTLVTCVTFVATLPVLYMLFKAS
B2: Annexin A1 (protein, UniProt P04083 1-346)
chain: MAMVSEFLKQAWFIENEEQEYVQTVKSSKGGPGSAVSPYPTFNPSSDVAALHKAIMVKGVDEATIIDILTKRNNAQRQQIKAAYLQETGKPLDETLKKALTGHLEEVVLALLKTPAQFDADELRAAMKGLGTDEDTLIEILASRTNKEIRDINRVYREELKRDLAKDITSDTSGDFRNALLSLAKGDRSEDFGVNEDLADSDARALYEAGERRKGTDVNVFNTILTTRSYPQLRRVFQKYTKYSKHDMNKVLDLELKGDIEKCLTAIVKCATSKPAFFAEKLHQAMKGVGTRHKALIRIMVSRSEIDMNDIKAFYQKMYGISLCQAILDETKGDYEKILVALCGGN
B3: ER membrane protein complex subunit 1 (protein, UniProt Q8N766 23-993)
chain: YEDQVGKFDWRQQYVGKVKFASLEFSPGSKKLVVATEKNVIAALNSRTGEILWRHVDKGTAEGAVDAMLLHGQDVITVSNGGRIMRSWETNIGGLNWEITLDSGSFQALGLVGLQESVRYIAVLKKTTLALHHLSSGHLKWVEHLPESDSIHYQMVYSYGSGVVWALGVVPFSHVNIVKFNVEDGEIVQQVRVSTPWLQHLSGACGVVDEAVLVCPDPSSRSLQTLALETEWELRQIPLQSLDLEFGSGFQPRVLPTQPNPVDASRAQFFLHLSPSHYALLQYHYGTLSLLKNFPQTALVSFATTGEKTVAAVMACRNEVQKSSSSEDGSMGSFSEKSSSKDSLACFNQTYTINLYLVETGRRLLDTTITFSLEQSGTRPERLYIQVFLKKDDSVGYRALVQTEDHLLLFLQQLAGKVVLWSREESLAEVVCLEMVDLPLTGAQAELEGEFGKKADGLLGMFLKRLSSQLILLQAWTSHLWKMFYDARKPRSQIKNEINIDTLARDEFNLQKMMVMVTASGKLFGIESSSGTILWKQYLPNVKPDSSFKLMVQRTTAHFPHPPQCTLLVKDKESGMSSLYVFNPIFGKWSQVAPPVLKRPILQSLLLPVMDQDYAKVLLLIDDEYKVTAFPATRNVLRQLHELAPSIFFYLVDAEQGRLCGYRLRKDLTTELSWELTIPPEVQRIVKVKGKRSSEHVHSQGRVMGDRSVLYKSLNPNLLAVVTESTDAHHERTFIGIFLIDGVTGRIIHSSVQKKAKGPVHIVHSENWVVYQYWNTKARRNEFTVLELYEGTEQYNATAFSSLDRPQLPQVLQQSYIFPSSISAMEATITERGITSRHLLIGLPSGAILSLPKALLDPRRPEIPTEQSREENLIPYSPDVQIHAERFINYNQTVSRMRGIYTAPSGLESTCLVVAYGLDIYQTRVYPSKQFDVLKDDYDYVLISSVLFGLVFATMITKRLAQVKLLNRAWR
B4: Lamina-associated polypeptide 2, isoform alpha (protein, UniProt P42166 1-694)
chain: MPEFLEDPSVLTKDKLKSELVANNVTLPAGEQRKDVYVQLYLQHLTARNRPPLPAGTNSKGPPDFSSDEEREPTPVLGSGAAAAGRSRAAVGRKATKKTDKPRQEDKDDLDVTELTNEDLLDQLVKYGVNPGPIVGTTRKLYEKKLLKLREQGTESRSSTPLPTISSSAENTRQNGSNDSDRYSDNEEGKKKEHKKVKSTRDIVPFSELGTTPSGGGFFQGISFPEISTRPPLGSTELQAAKKVHTSKGDLPREPLVATNLPGRGQLQKLASERNLFISCKSSHDRCLEKSSSSSSQPEHSAMLVSTAASPSLIKETTTGYYKDIVENICGREKSGIQPLCPERSHISDQSPLSSKRKALEESESSQLISPPLAQAIRDYVNSLLVQGGVGSLPGTSNSMPPLDVENIQKRIDQSKFQETEFLSPPRKVPRLSEKSVEERDSGSFVAFQNIPGSELMSSFAKTVVSHSLTTLGLEVAKQSQHDKIDASELSFPFHESILKVIEEEWQQVDRQLPSLACKYPVSSREATQILSVPKVDDEILGFISEATPLGGIQAASTESCNQQLDLALCRAYEAAASALQIATHTAFVAKAMQADISQAAQILSSDPSRTHQALGILSKTYDAASYICEAAFDEVKMAAHTMGNATVGRRYLWLKDCKINLASKNKLASTPFKGGTLFGGEVCKVIKKRGNKH
B5: RELT-like protein 1 (Fragment) (protein, UniProt Q8IUW5 24-271)
chain: SPLVAPDNGSSRTLHSRTETTPSPSNDTGNGHPEYIAYALVPVFFIMGLFGVLICHLLKKKGYRCTTEAEQDIEEEKVEKIELNDSVNENSDTVGQIVHYIMKNEANADVLKAMVADNSLYDPESPVTPSTPGSPPVSPGPLSPGGTPGKHVCGHHLHTVGGVVERDVCHRCRHKRWHFIKPTNKSRESRPRRQGEVTVLSVGRFRVTKVEHKSNQKERRSLMSVSGAETVNGEVPATPVKRERSGTE
B6: Acyl-coenzyme A thioesterase 9, mitochondrial (Fragment) (protein, UniProt Q9Y305 22-439)
chain: LTQGPQNPKKQGIFHIHEVRDKLREIVGASTNWRDHVKAMEERKLLHSFLAKSQDGLPPRRMKDSYIEVLLPLGSEPELREKYLTVQNTVRFGRILEDLDSLGVLICYMHNKIHSAKMSPLSIVTALVDKIDMCKKSLSPEQDIKFSGHVSWVGKTSMEVKMQMFQLHGDEFCPVLDATFVMVARDSENKGPAFVNPLIPESPEEEELFRQGELNKGRRIAFSSTSLLKMAPSAEERTTIHEMFLSTLDPKTISFRSRVLPSNAVWMENSKLKSLEICHPQERNIFNRIFGGFLMRKAYELAWATACSFGGSRPFVVAVDDIMFQKPVEVGSLLFLSSQVCFTQNNYIQVRVHSEVASLQEKQHTTTNVFHFTFMSEKEVPLVFPKTYGESMLYLDGQRHFNSMSGPATLRKDYLVEP

Target: histidine six-tagged PTPRJ (human) (UniProt Q12913)
Assay: affinity purification with mass spectrometry; PTPRJ-His6 captured on MagneHis poly(His)-avid magnetic beads from enriched membrane extracts (Mem-PER kit) of A549 cells three days after infection with Ad PTPRJ-His6 at MOI30; washes with 100 mM HEPES, 500 mM NaCl, pH 7.5; elution with 500 mM …; dimethyl labelling against a control eluate from cells with untagged wild-type PTPRJ

binding | Molecule
binds | Ras-related protein Rap-1b (Fragment) (from UniProt P61224 1-184)
binds | Spectrin alpha chain, non-erythrocytic 1 (from UniProt Q13813 1-2472)
binds | ATP synthase subunit alpha, mitochondrial (from UniProt P25705 44-553)
binds | Ras-related protein Rab-5C (from UniProt P51148 1-216)
binds | Signal recognition particle 54 kDa protein (from UniProt P61011 1-504)
binds | Probable ATP-dependent RNA helicase DDX5 (from UniProt P17844 1-614)
binds | Pyruvate kinase PKM (from UniProt P14618 1-531)
binds | Plasma membrane calcium-transporting ATPase 1 (from UniProt P20020 1-1220)
binds | Endoplasmin (from UniProt P14625 22-803)
binds | Tropomyosin alpha-4 chain (from UniProt P67936 1-248)
binds | Ras GTPase-activating-like protein IQGAP1 (from UniProt P46940 1-1657)
binds | Myosin-10 (from UniProt P35580 1-1976)
binds | Ras-related protein Rab-2A (from UniProt P61019 1-212)
binds | Vimentin (from UniProt P08670 1-466)
binds | Gelsolin (from UniProt P06396 28-782)
binds | Calnexin (from UniProt P27824 21-592)
binds | CD98hc (from UniProt P08195 1-529)
binds | Myosin-9 (from UniProt P35579 1-1960)
binds | Heat shock 70 kDa protein 1A/1B (from UniProt P0DMV8 1-641)
binds | B1
binds | B2
binds | B3
binds | B4
binds | B5
binds | B6

These are yes or no findings as the source states them, for the method shown. Binding seen in cells or lysates may run through a third protein. These calls come from enrichment with a bait or labelling near it, and not all partners need be listed.
